Laboratory results from PMC10568820.
No constants are given. Whether binding was seen depends on the method and setting. Binding seen in cells or lysates may run through a third protein. Some binding calls cover weakened binding; strength is not graded here. For part of these data: Sequences can lack the tags named with a protein.

What was measured:
GST-LKB1 = biological target: T1, GST-LKB1 (UniProt Q15831); experiment: pull-down; purified GST fusion protein on glutathione beads mixed with HA-tagged protein at 4 °C for 12 h; beads washed three times, detection by protein blotting; GST-only as control; only the target purified
T1 sequence: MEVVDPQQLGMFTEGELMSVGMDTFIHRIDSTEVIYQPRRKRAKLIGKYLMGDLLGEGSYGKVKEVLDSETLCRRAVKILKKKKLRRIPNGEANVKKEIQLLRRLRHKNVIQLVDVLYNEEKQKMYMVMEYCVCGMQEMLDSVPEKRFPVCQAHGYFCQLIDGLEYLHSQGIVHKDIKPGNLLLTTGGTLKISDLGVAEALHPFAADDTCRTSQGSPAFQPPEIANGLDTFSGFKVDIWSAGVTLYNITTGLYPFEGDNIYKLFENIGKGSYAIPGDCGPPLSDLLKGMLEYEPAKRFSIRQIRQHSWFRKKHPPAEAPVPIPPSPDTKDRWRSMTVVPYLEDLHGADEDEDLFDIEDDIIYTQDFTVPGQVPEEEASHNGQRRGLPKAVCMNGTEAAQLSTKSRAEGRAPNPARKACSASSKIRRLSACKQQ

[1] = biological target: DENV-2 NS1 overexpressed in HUVEC (Dengue virus 2) (UniProt P14340); experiment: co-IP; HUVEC (DENV-2 infected, or overexpressing NS1 or its Wing domain) lysed in RIPA buffer with protease inhibitors; 2 mg whole cell lysate precleared with protein G beads, 2 μg indicated antibody or isotype-matched IgG control, 2 h
GST-NS1 (Dengue virus 2) = GST-NS1 (Dengue virus 2) (UniProt P14340); experiment: pull-down; purified GST fusion protein on glutathione beads mixed with HA-tagged protein at 4 °C for 12 h; beads washed three times, detection by protein blotting; GST-only as control; only the target purified

Question: Which binding (GST-LKB1) does the source give for HA-NS1 (from UniProt P14340 776-1127) here?
Answer: binds

B1: LKB1 (endogenous, HUVEC) (protein, UniProt Q15831-1 1-433)
chain: T1 sequence
Question: For B1, which binding [1] is on record?
Answer: binds

B2: HA-LKB1 (protein, UniProt Q15831-1 1-433)
chain: T1 sequence
Question: For B2, which binding (GST-NS1 (Dengue virus 2)) is on record?
Answer: binds
